Data source: PubChem BioAssay AID1259405 (NCATS, 2018)
Test: 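Silenced genes that increase secreted GFP made by CHO cells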 (primary screen). Cells: Chinese hamster CHO-K1 ovary cells with stable secreted eGFP expression. Knock-down reagent: single siRNA against mouse genes, 0.8 pmol siRNA per well (2 µl of 400 nM stock). Duration: 3 days. Detection: 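Percent of the per-plate non-targeting control median for intracellular GFP per well by laser scanning cytometry and for cell viability by ATP luminescence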. Direction: GFP, % of control: higher = more GFP per well, higher productivity; viability (ATP), % of control: higher = more viable cells (more ATP). Hit rule: 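Called active when intracellular GFP, relative to negative control, is at or above 120%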.
Here is an unselected part of about 50,000 reagents tested. About 4,000 of all reagents (8%) count as active. 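Mouse siRNA library applied to hamster cells; one well for each siRNA.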

no.	target gene	PubChem SID	GFP, % of control	viability (ATP), % of control	call
1	Tex56	SID363552441	64.9	78.3	inactive
2	Tex56	SID363585577	59.9	84.8	inactive
3	Tex56	SID363585928	95.4	113	inactive
4	Wdr64	SID363542596	78.7	72.9	inactive
5	Wdr64	SID363552087	66.2	54.4	inactive
6	Wdr64	SID363559692	81.7	114	inactive
7	Nsmf	SID363562213	47.2	63.4	inactive
8	Nsmf	SID363567351	93.5	71	inactive
9	Nsmf	SID363584708	123	62	active
10	4921536K21Rik	SID363542611	65.8	75	inactive
11	4921536K21Rik	SID363552102	69.3	75.4	inactive
12	4921536K21Rik	SID363559707	95.1	101	inactive
13	Esrp1	SID363553888	82.2	77.7	inactive
14	Esrp1	SID363561845	97.8	85.5	inactive
15	Esrp1	SID363565583	71.5	53.5	inactive
16	Klhl15	SID363540286	72.3	79.6	inactive
17	Klhl15	SID363542038	80	78.2	inactive
18	Klhl15	SID363566954	90.9	45.6	inactive
19	Cct2	SID363572798	78.5	108	inactive
20	Cct2	SID363578078	76.7	94.5	inactive
21	Cct2	SID363582302	74.4	137	inactive
22	Vstm4	SID363539730	71	75.5	inactive
23	Vstm4	SID363561031	67.8	58.8	inactive
24	Vstm4	SID363565121	60.8	56.6	inactive
25	Grina	SID363544153	74	64.4	inactive
26	Grina	SID363550481	38.1	61	inactive
27	Grina	SID363557030	77.6	50.6	inactive
28	Tab2	SID363581625	117	128	inactive
29	Tab2	SID363589119	114	95.7	inactive
30	Zfp946	SID363555451	103	74.8	inactive
31	Zfp946	SID363564112	89.5	87.3	inactive
32	Zfp946	SID363587658	72.4	78.1	inactive
33	Mmut	SID363568911	114	123	inactive
34	Mmut	SID363576303	49.2	65	inactive
35	Mmut	SID363579119	45.6	42.6	inactive

Only “GFP, % of control”, for 2 of the entries above:
Nsmf [SID363584708] = 123
4921536K21Rik [SID363542611] = 65.8
